Laboratory results from article PMC7985479.
These are yes or no findings as the source states them, for the method shown. Some binding calls cover weakened binding; strength is not graded here.

Chains of the proteins cited; added tags and fusions are not shown. Lines headed by an entry give the natural chain unless they say otherwise; changes in a name come on top. Residues count along the entry.
UniProt P54760, residues 16-987: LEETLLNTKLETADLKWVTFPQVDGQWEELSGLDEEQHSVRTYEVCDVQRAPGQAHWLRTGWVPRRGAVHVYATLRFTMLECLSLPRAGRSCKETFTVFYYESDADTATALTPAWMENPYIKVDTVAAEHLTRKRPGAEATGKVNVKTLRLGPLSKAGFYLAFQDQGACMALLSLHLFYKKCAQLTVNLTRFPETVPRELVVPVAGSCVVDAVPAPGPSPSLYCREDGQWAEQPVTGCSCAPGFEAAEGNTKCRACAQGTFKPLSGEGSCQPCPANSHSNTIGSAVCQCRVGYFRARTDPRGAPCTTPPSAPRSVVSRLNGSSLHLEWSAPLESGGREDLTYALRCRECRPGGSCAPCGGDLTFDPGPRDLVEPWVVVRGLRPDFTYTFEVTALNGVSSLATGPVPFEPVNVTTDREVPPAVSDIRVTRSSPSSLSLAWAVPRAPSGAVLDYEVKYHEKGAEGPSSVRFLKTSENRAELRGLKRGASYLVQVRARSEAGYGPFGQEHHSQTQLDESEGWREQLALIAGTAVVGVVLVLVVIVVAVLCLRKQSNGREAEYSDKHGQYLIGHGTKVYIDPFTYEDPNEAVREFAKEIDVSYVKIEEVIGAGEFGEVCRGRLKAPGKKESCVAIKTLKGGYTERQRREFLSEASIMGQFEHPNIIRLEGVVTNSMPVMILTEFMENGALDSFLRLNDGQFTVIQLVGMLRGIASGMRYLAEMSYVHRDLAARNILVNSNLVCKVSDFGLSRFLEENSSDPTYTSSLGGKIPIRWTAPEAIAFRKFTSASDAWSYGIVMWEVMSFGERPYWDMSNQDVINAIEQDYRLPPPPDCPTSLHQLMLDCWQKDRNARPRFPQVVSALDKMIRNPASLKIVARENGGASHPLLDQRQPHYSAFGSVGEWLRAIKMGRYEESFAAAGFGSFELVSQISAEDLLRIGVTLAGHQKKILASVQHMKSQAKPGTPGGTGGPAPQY
UniProt P54761, residues 16-987: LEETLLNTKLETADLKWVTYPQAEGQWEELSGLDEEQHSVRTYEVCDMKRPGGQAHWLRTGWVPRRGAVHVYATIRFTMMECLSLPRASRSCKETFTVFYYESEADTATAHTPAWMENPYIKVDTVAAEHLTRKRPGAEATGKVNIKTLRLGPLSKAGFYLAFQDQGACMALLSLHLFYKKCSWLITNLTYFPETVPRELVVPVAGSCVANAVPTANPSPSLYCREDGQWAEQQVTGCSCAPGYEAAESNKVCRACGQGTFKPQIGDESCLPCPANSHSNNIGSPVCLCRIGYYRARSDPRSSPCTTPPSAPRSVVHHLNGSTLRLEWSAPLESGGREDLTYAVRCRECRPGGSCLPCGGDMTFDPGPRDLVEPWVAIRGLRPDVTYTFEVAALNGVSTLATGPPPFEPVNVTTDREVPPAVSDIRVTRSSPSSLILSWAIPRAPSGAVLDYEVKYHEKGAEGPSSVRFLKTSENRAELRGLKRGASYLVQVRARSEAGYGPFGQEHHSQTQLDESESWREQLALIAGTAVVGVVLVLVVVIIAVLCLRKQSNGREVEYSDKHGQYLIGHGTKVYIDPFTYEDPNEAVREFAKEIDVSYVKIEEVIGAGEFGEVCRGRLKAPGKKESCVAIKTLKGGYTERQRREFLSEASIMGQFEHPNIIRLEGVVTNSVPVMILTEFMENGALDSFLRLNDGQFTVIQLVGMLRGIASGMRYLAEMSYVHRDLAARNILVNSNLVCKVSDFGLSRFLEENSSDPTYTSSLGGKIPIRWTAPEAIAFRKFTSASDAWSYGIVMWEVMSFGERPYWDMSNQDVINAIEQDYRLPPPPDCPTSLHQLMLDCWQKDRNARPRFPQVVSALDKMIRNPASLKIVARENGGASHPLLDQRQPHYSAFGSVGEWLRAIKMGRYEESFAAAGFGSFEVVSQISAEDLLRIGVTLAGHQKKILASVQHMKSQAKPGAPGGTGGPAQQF
UniProt P52799, residues 28-229: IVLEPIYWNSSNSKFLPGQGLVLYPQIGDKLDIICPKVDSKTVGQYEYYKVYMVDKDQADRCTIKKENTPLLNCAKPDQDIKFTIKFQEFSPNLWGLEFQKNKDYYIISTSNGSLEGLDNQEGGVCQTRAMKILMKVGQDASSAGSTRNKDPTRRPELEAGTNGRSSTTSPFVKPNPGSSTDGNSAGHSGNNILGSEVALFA

Assays:
[1] = molecular target: human EPHB4 (Ephrin type-B receptor 4) on 293-humanEPHB4-GFP cells (human) (UniProt P54760); assay: flow cytometry on cells; 293-GFP, 293-humanEPHB4-GFP and 293-murineEPHB4-GFP cells incubated with 2 ug/mL recombinant human Ephrin B2-Fc for 30 min on ice, washed twice with D-PBS, stained with APC-conjugated anti IgG-Fc antibody for 30 min on ice; only the binder purified
[2] = molecular target: murine EPHB4 on 293-murineEPHB4-GFP cells (murine) (UniProt P54761); assay: as above

With “recombinant human Ephrin B2-Fc chimera protein (from UniProt P52799 28-229) (Fc fusion)” the binding [1] was “binds” and the binding [2] was “binds”.
